Taken from: PubChem BioAssay AID1259308 (NCATS, 2017)
Here is an unselected part of about 59,000 reagents. In the full data, about 1,510 (2.6%) were called active. 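Calls use total luciferase alone and ignore viability, so some active siRNAs may act by altering cell number.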 A number with no mark means an inactive call. Reagents against one gene are numbered here. Not all columns of the deposit are shown. No sequences are given here.

- Test: 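Knock-downs that increase output of a recombinant reporter protein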 (primary screen)
- Cell system: human HEK293 embryonic kidney cells stably expressing firefly luciferase (HEK-CMV-Luc2-Hygro)
- Knock-down reagent: single siRNA against human genes, 0.8 pmol siRNA per well
- Time to read-out: 72 h
- Detection: 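Luciferase light (ONE-Glo) measured on one replicate plate set and viability (CellTiter-Glo) on the other, scaled to a negative control siRNA, with robust z-scores and luciferase per cell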
- Reading the numbers: total luciferase, z-score: higher = more reporter protein produced
- Active means: 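Active when the median/MAD z-score for overall luciferase is greater than 3; a gene was taken forward for validation with new siRNAs if at least two of its three siRNAs passed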
- Meaning of the calls: active = raised luciferase; inactive = no rise

| gene | reagent no. | total luciferase, z-score |
| --- | --- | --- |
| VGLL4 | 1 | 0.164 |
| VGLL4 | 2 | -0.175 |
| VGLL4 | 3 | 1.33 |
| TSPYL6 | 1 | 0.965 |
| TSPYL6 | 2 | -0.594 |
| TSPYL6 | 3 | 1.62 |
| ATRIP | 1 | 0.831 |
| ATRIP | 2 | 1.65 |
| ATRIP | 3 | 1.26 |
| BPIFB6 | 1 | 0.498 |
| BPIFB6 | 2 | 4.18 (active) |
| BPIFB6 | 3 | 0.183 |
| BICDL2 | 1 | -0.0778 |
| BICDL2 | 2 | 0.0147 |
| BICDL2 | 3 | -0.381 |
| HTR3E | 1 | -1.17 |
| HTR3E | 2 | -0.853 |
| HTR3E | 3 | 0.0583 |

Targets above whose target name starts with T or t:
| gene | reagent no. | total luciferase, z-score |
| --- | --- | --- |
| TSPYL6 | 1 | 0.965 |
| TSPYL6 | 2 | -0.594 |
| TSPYL6 | 3 | 1.62 |

More records:
| gene | reagent no. | total luciferase, z-score |
| --- | --- | --- |
| MUC2 | 1 | 0.774 |
| MUC2 | 2 | 1.71 |
| MUC2 | 3 | -1.18 |
| EIF3K | 1 | 1.07 |
| EIF3K | 2 | 0.825 |
| EIF3K | 3 | -0.291 |
| EIF3E | 1 | -2.06 |
| EIF3E | 2 | -1.98 |
| EIF3E | 3 | -1.97 |
| FAM107B | 1 | -0.899 |
| FAM107B | 2 | -0.939 |
| FAM107B | 3 | -0.468 |
| DBX1 | 1 | 0.691 |
| DBX1 | 2 | -0.256 |
| DBX1 | 3 | 2.15 |
| TRMT44 | 1 | -0.901 |
| TRMT44 | 2 | 0.621 |
| TRMT44 | 3 | 0.249 |
| MAPK4 | 1 | -0.744 |
| MAPK4 | 2 | -1.4 |
| MAPK4 | 3 | -0.694 |
